# Primary screen of a compound library

Sequences of proteins named here, by UniProt entry; tags and fusion partners are left off.
UniProt E9BF75, entry or part of it: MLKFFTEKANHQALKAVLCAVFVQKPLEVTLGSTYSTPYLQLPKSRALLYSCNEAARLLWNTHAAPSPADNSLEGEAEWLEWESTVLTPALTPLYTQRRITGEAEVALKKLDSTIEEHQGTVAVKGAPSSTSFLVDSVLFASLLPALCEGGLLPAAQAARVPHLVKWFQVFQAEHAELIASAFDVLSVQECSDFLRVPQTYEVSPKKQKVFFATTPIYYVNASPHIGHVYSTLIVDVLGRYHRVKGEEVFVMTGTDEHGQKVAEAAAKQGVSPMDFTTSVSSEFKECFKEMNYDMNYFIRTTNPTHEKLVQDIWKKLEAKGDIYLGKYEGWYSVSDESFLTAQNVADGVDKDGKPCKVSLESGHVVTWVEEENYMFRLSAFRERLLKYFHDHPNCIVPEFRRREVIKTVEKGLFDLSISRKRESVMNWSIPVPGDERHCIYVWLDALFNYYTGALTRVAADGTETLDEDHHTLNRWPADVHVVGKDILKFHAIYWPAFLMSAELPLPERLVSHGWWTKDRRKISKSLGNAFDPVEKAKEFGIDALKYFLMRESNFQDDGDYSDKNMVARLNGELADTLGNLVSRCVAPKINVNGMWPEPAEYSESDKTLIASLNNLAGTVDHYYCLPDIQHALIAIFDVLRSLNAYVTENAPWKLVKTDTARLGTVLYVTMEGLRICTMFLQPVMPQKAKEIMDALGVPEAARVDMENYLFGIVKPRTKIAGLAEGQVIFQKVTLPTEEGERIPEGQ

From ChEMBL document CHEMBL3988442, “University of Dundee, Small-Polar-MMV Screening Library” (2021).

Results are percentages, as filed. How 0% and 100% were set is not recorded. Most values in the screen are low, and negative values occur. Compounds were drawn at random from those tested, without regard to their results.

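Primary screen of methionyl-tRNA synthetase; the read-out is not stated. Target: Methionyl-tRNA synthetase (putative), Leishmania donovani (UniProt E9BF75). The test concentration is not given. The values are filed as inhibition. About 68,000 compounds were tested under these conditions; 0.035% (about 24) showed 50% or more at least once.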

For Cc1csc(CCCNC(=O)NC2CC(=O)N(C(C)(C)C)C2)n1 (centres unmarked) the result was 12.05%. Result for CN(C)CCN1CCOCC2(CCCN(C(=O)Cc3ccccc3)C2)C1 (centres unmarked) was 9.63%. COC(C)(C)C(=O)N[C@H]1CN(c2nccnc2N(C)C)C[C@@H]1C(C)C gave 8.635%. Result for CCN(CC1CCCO1)C(=O)Nc1cccc(N2CCOCC2)c1 (centres unmarked) was 15.72%. Result for CN(C)c1ncccc1CNS(=O)(=O)c1ccc(F)c(F)c1 was 18.31%. O=C(c1ccnnc1)N1CCC2(CC1)CCN(C(=O)c1cccnc1)C2 gave 13.44%. Cc1cc2n(n1)CC(CNCc1ccccc1Cn1cccn1)CN2 (centres unmarked) gave 25.9%. With Nc1ccnc(-c2cc(NC3CCNCC3)nc3[nH]ccc23)c1 the screen gave 9.804%.

For COCCc1nnc(NC(=O)CSCc2ccccc2)o1 the result was 15.6%. For Cc1ncccc1NC(=O)[C@H]1C[C@@H]2CCN(Cc3nccs3)C[C@@H]2O1 the result was 13.13%. With CC(CS(C)(=O)=O)N(C(=O)CCc1ccsc1)C1CC1 (centres unmarked) the screen gave 17.71%. For CC(C)c1nc(C(=O)N2C[C@H](C(C)C)[C@@H](N)C2)cs1 the result was 16.19%. O=C(Cn1cnc2cc3c(cc21)OCCCO3)NC1CCCC1 read 4.127%. CC(NCc1c(C(C)C)nn(C)c1N1CCOCC1)C(N)=O (centres unmarked) read 3.067%. CN(CCc1cnn(C)c1)C(=O)C1COc2ccccc2C1 (centres unmarked) read 11.73%. CCc1cc2cc(OC)c(OC)cc2nc1SCCN1CCCCC1 gave -1.266%.

With COCCN1CCn2cc(CNC(=O)c3cnn(C)c3)nc2C1 the screen gave 8.383%. CCN1CC(C(=O)NC(C)(C)C(=O)OC)CC1=O (centres unmarked) gave 6.135%. Cc1cnn(C2CCCN(C(=O)c3sccc3-n3cnnn3)C2)c1 (centres unmarked) gave 12.27%. With CCOCCNc1nc(-c2ccncc2)nc2c1CCNCC2 the screen gave 4.467%. CCn1cc(CN2CCCN(C(=O)c3ccccc3OC)CC2)cn1 read 17.13%. With COc1ccc(C2=CCN(C(=O)C3CC(=O)N(C4CC4)C3)CC2)cc1 (centres unmarked) the screen gave 10.24%. Result for Cc1nccn1CC1CCCN1CCCc1nc(-c2cccs2)no1 (centres unmarked) was 9.15%. With COCCC(=O)N1CCC2(CCN(Cc3cccc(F)c3)CC2)CC1 the screen gave 8.242%.

For CCc1ccc(CN2CC[C@H]3[C@H]2CC(=O)N3Cc2cccc(C)n2)o1 the result was 13.14%. Result for COCC[C@]1(O)CCN(C(=O)CCc2cnn(C)c2)C[C@H]1C was 4.963%. With O=C(c1ccc[nH]1)N1C[C@H]2CN(Cc3cccc(F)c3)C(=O)[C@H]2C1 the screen gave 9.764%. O=C1CC(N(C(=O)c2csc(-c3ccccc3)n2)C2CC2)C(=O)N1 (centres unmarked) read 9.023%. For Cc1cc(C(F)(F)F)c2c(=O)n(Cc3cc(C)on3)n(C)c2n1 the result was 10.44%. Cc1nc(CC(=O)N2CCC[C@H]2c2nc(C(C)C)no2)cs1 gave 14.16%. Result for CN(Cc1cccnc1)C1CC2(CCN(Cc3cccnc3)CC2)C1 was 4.975%. CC(CN1CCOC1=O)NC(=O)c1cccc(C#N)c1 (centres unmarked) gave 17.34%.

Result for Cc1noc([C@H]2C[C@@H]3CCN(CC4CC4)C[C@H]3O2)n1 was 19.61%. Result for CNC(=O)[C@@]12CCO[C@@H]1CCN(S(=O)(=O)c1ccccc1C)C2 was 9.341%. Result for Cc1nc(C)c(C)c(N2C[C@@H](CN3CCCN(C)CC3)[C@@H](CO)C2)n1 was 13.25%. For O=c1ccc2c([nH]1)CCC(NCc1ccc(F)cc1)C2 (centres unmarked) the result was 10.66%. O=C(Nc1c(N2CCCC2)cccc1N1CCCC1)c1cnccn1 read 4.632%. Result for Cc1ccc(C(=O)Nc2cn[nH]c2)cc1 was 14.75%. With CC(C)CNC(=O)CNC(=O)NCC(O)c1ccc2ccccc2c1 (centres unmarked) the screen gave 9.749%. COc1ccccc1CC1CCCN(CC(=O)NC2CC2)C1 (centres unmarked) gave 13.4%.

Result for CCC[C@H]1CN(Cc2cscn2)C[C@@H]1NC(=O)C1(COC)CCC1 was 8.156%. Result for CCOc1ccccc1OCCN(C)Cc1ncnn1CC was 10.2%. COc1cc(CNC(=O)Nc2nnc(C3CC3)s2)ccc1O gave 12.58%. COc1cc(NCc2ccncc2)c(-c2nn[nH]n2)cc1OC read 17.85%. Result for Cn1nccc1CN1CCOC(c2ccc(-c3cncnc3)cn2)C1 (centres unmarked) was 18.02%. For CCc1nc(C2CCCN(C(=O)c3cnn(CC)c3)C2)no1 (centres unmarked) the result was 7.746%. For CC(C)c1nc2n(n1)CC(NCc1nnc(C3CC3)o1)CC2 (centres unmarked) the result was 20.55%. With CN(C)c1ncc(CN2CCCC(Nc3ccc4c(c3)OCCO4)C2)s1 (centres unmarked) the screen gave 10.72%.

Result for Cc1ccc2c(ccn2CCC(=O)NC[C@@H]2CCCN3CCCC[C@H]23)c1 was 17.84%. With COC(=O)CSCc1nc(-c2ccc(Cl)cc2)no1 the screen gave 3.323%. CCOc1cc(C)nc(N2CCN(C(=O)c3cscn3)CC2)n1 read 20.67%. With O=C(NCC1(c2cccc(F)c2)CC1)N1CCC2(CCOC2)C1 (centres unmarked) the screen gave 14.51%. For CCc1cnc(N)nc1NCCn1cc(Cl)cn1 the result was 4.416%. For CS(=O)(=O)N1CCN2C(=O)N(C3CCOCC3)C[C@H]2C1 the result was 9.774%. Result for Cc1cc(CNC(=O)NC(C)c2ccccc2)no1 (centres unmarked) was 22.36%. CSc1ncc(C(=O)N(C)C(C)Cc2ccccn2)cn1 (centres unmarked) gave 9.574%.

With Fc1ccc(CN2CCC3(CCN(Cc4nccs4)CC3)C2)cc1 the screen gave 17.29%. For CCC[C@@H]1CN(Cc2ccccc2-c2ccco2)C[C@H]1NC(C)=O the result was 7.606%. With CC(=O)N1CCC(c2ccnc(Nc3cncnc3)n2)CC1 the screen gave 7.812%.

7 of the entries, repeated:

{"structure": "Fc1ccc(CN2CCC3(CCN(Cc4nccs4)CC3)C2)cc1", "Inhibition": 17.29}
{"structure": "O=C(Nc1c(N2CCCC2)cccc1N1CCCC1)c1cnccn1", "Inhibition": 4.632}
{"structure": "CC(=O)N1CCC(c2ccnc(Nc3cncnc3)n2)CC1", "Inhibition": 7.812}
{"structure": "CN(CCc1cnn(C)c1)C(=O)C1COc2ccccc2C1", "stereo": "centres unmarked", "Inhibition": 11.73}
{"structure": "CC(C)c1nc2n(n1)CC(NCc1nnc(C3CC3)o1)CC2", "stereo": "centres unmarked", "Inhibition": 20.55}
{"structure": "CN(C)CCN1CCOCC2(CCCN(C(=O)Cc3ccccc3)C2)C1", "stereo": "centres unmarked", "Inhibition": 9.63}
{"structure": "COCCN1CCn2cc(CNC(=O)c3cnn(C)c3)nc2C1", "Inhibition": 8.383}